Measurements from US20200339690A1.
Results are given in words; binding and its absence hold for the method and conditions named. Some results given as binding are weak or reduced against the parent protein; the word gives no strength.

Chains of the proteins cited; added tags and fusions are not shown. Lines headed by an entry give the natural chain unless they say otherwise; changes in a name come on top.
UniProt Q8N423: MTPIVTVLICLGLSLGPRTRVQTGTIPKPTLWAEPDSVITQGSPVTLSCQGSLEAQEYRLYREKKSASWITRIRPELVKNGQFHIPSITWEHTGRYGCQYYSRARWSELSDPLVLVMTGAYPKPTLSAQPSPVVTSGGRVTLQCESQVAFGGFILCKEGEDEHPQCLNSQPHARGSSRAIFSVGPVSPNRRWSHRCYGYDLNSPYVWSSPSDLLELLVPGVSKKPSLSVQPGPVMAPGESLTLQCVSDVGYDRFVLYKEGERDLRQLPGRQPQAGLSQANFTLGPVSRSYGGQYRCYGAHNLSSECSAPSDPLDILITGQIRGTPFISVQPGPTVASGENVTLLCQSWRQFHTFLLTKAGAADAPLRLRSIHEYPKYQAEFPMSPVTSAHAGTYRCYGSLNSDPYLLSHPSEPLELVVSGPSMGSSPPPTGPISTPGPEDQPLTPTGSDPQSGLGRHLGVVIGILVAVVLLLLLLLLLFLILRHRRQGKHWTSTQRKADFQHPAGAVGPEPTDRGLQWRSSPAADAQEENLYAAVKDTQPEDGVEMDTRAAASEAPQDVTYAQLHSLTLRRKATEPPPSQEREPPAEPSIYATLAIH

B1: J-17 (antibody, human IgG4 S228P, kappa, V domains shown)
VH: QIQLVQSGPELKKPGETVKISCKASGYTFTTYGLSWVKQTPGKGLKWMGWINTYSGVPTYTDDFKGRFAFSLETSASTAYLQINNLKNEDTATYFCARPYDFDQVGFAYWGQGTLVTVSA
VL: SIVMTQTPKFLLVSAGDRVSITCKASQTVSSDVAWYQQKAGQSPKLLIYYASNRYTGVPDRFTGSGYGTDFTFTISTVQAEDLAVYFCQQDYSSPFTFGGGSKLEIKR
B2: J-19 (antibody, human IgG4 S228P, kappa, V domains shown)
VH: QVTLKESGPGILQPSHTLSLTCSFSGFSLNTYAMGVSWIRQPSGKGLEWLASIWWNGNKYNNPSLKSRLTVSKDTSNNQAFLKVTSVDTADTATYYCAHSRIIRFTDYVMDAWGQGASVTVSS
VL: DIQMTQSPASLSTFLGEPVTIECRASEDIYNDLAWYQQKPGKSPQLLIYNANSLHTGVPSRFSGSGSGTQYSLKINSLQSEDVASYFCQQYYDYPLTFGSGTKLEIKR
B3: J-11 (antibody, human IgG4 S228P, kappa, V domains shown)
VH: QVQLQQSGAELMKPGASVKLSCKATGYILTGYWIEWVKQRPGHGLEWIGEILPGSGSTNYNENFKGKATFTADTSSNTAYMQLSSLTTEDSAIYYCARAVLGYFDYWGQGTTLTVSS
VL: DIVMTQSHKFMSTSVGDRVSITCKASQDVSTAVAWYQQKPGQSPKLLIYWASTRHTGVPDRFTGSGSGTDYTLTISSVQAEDLALYYCHQHYSTYTFGGGTKLEIKR

What follows are binders tested against human LILRB2 expressed on cells (human) (UniProt Q8N423) (assay: flow cytometry, human whole blood, biotinylated mAb 25 ug/mL).

binding	Binder
binds	B1
binds	B2
binds	B3
